# Results published in publication PMC7372886.
# Sequences of proteins named here, by UniProt entry; tags and fusion partners are left off.
# UniProt P49327: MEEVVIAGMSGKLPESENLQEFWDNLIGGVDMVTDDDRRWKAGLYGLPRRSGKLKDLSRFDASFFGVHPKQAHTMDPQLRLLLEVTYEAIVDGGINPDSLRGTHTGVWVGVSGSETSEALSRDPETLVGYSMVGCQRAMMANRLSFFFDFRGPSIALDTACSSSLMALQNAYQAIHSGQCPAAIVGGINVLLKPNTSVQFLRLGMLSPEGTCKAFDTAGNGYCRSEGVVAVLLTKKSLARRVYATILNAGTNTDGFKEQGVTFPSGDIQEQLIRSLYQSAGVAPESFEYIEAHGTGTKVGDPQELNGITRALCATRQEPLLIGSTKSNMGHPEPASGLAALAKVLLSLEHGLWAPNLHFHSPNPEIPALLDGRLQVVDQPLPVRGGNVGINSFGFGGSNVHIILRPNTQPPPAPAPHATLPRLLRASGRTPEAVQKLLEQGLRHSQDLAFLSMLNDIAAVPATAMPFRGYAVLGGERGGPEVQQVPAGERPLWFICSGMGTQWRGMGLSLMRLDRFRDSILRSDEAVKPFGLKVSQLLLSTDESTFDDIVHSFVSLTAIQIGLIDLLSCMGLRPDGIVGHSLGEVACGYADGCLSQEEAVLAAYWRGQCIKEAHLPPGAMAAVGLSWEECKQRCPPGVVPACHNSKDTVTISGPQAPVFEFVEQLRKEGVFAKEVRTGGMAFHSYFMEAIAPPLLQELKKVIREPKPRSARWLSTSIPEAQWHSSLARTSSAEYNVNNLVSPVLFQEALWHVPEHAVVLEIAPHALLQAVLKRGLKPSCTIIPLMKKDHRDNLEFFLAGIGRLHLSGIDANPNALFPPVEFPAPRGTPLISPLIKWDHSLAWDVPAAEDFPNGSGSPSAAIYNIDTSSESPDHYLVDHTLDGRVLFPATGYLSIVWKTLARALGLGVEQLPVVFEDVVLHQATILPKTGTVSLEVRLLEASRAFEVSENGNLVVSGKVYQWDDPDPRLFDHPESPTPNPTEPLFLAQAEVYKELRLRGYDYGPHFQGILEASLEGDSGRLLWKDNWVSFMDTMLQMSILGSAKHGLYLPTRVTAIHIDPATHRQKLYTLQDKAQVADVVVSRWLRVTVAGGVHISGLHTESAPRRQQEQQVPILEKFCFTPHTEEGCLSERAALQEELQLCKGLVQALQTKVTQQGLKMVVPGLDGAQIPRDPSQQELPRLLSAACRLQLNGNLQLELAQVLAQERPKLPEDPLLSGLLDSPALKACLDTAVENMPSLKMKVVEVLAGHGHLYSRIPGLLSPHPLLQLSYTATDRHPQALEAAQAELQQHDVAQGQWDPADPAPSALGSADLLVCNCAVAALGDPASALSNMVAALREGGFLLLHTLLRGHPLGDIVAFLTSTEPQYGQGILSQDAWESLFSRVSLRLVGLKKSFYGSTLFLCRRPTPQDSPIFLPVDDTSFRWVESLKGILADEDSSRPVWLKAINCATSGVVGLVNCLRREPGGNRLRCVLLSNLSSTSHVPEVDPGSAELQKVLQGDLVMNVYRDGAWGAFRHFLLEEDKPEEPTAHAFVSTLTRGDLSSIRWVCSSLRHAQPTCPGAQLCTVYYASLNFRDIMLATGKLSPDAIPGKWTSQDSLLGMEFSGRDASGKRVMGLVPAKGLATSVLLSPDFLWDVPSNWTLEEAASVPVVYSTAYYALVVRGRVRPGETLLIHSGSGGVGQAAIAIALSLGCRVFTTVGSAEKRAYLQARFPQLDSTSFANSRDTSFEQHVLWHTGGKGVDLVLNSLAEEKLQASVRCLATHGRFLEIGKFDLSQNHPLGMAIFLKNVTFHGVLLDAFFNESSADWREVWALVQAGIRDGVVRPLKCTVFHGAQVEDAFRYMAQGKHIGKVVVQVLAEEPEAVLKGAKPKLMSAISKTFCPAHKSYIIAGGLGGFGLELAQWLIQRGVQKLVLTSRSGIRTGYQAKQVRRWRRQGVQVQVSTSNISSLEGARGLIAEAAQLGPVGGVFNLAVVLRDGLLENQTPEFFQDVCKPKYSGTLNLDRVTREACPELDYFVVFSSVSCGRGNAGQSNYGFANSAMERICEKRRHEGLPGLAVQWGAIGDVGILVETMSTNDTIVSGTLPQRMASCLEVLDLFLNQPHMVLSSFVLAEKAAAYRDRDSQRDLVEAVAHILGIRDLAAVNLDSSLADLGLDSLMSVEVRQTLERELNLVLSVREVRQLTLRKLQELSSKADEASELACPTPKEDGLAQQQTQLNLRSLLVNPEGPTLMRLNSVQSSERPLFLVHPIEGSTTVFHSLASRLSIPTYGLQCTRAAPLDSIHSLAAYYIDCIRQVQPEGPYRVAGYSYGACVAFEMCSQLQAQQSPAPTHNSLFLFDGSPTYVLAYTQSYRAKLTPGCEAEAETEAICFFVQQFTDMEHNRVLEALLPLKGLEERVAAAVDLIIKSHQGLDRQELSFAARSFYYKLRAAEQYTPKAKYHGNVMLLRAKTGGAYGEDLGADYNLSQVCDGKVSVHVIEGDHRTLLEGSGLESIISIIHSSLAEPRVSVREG
# No constants are given. Whether binding was seen depends on the method and setting. Binding seen in cells or lysates may run through a third protein. Here binding means that the protein was enriched with, or labelled near, the bait; the list need not be complete.
# Target: Fatty acid synthase (human (endogenous in HepG2 and SMMC7721)) (UniProt P49327)
# Assay: affinity purification with mass spectrometry; FASN antibody and Protein A/G agarose beads on whole cell lysates of HepG2 cells transfected with control siRNA or FASN siRNA; eluted proteins iTRAQ-labelled (114, 117 against 118, 121), Nano LC ESI MS/MS
row,Binder,binding
1,"MYL9 protein (protein, UniProt P24844 1-172) MSSKRAKAKTTKKRPQRATSNVFAMFDQSQIQEFKEAFNMIDQNRDGFIDKEDLHDMLASLGKNPTDEYLEGMMSEAPGPINFTMFLTMFGEKLNGTDPEDVIRNAFACFDEEASGFIHEDHLRELLTTMGDRFTDEEVDEMYREAPIDKKGNFNYVEFTRILKHGAKDKDD",binds
2,"CYTSA protein (protein, UniProt B2RMV2 1-1117) MKKASRSVGSVPKVSAISKTQTAEKIKPENSSSASTGGKLVKPGTAASLSKTKSSDDLLAGMAGGVTVTNGVKGKKSTCPSAAPSASAPAMTTVENKSKISTGTASSTKRSTSTGNKESSSTRERLRERTRLNQSKKLPSAGQGANDMALAKRSRSRTATECDVRMSKSKSDNQISDRAALEAKVKDLLTLAKTKDVEILHLRNELRDMRAQLGINEDHSEGDEKSEKETIMAHQPTDVESTLLQLQEQNTAIREELNQLKNENRMLKDRLNALGFSLEQRLDNSEKLFGYQSLSPEITPGNQSDGGGTLTSSVEGSAPGSVEDLLSQDENTLMDHQHSNSMDNLDSECSEVYQPLTSSDDALDAPSSSESEGIPSIERSRKGSSGNASEVSVACLTERIHQMEENQHSTSEELQATLQELADLQQITQELNSENERLGEEKVILMESLCQQSDKLEHFSRQIEYFRSLLDEHHISYVIDEDVKSGRYMELEQRYMDLAENARFEREQLLGVQQHLSNTLKMAEQDNKEAQEMIGALKERSHHMERIIESEQKGKAALAATLEEYKATVASDQIEMNRLKAQLENEKQKVAELYSIHNSGDKSDIQDLLESVRLDKEKAETLASSLQEDLAHTRNDANRLQDAIAKVEDEYRAFQEEAKKQIEDLNMTLEKLRSDLDEKETERSDMKETIFELEDEVEQHRAVKLHDNLIISDLENTVKKLQDQKHDMEREIKTLHRRLREESAEWRQFQADLQTAVVIANDIKSEAQEEIGDLKRRLHEAQEKNEKLTKELEEIKSRKQEEERGRVYNYMNAVERDLAALRQGMGLSRRSSTSSEPTPTVKTLIKSFDSASQVPNPAAAAIPRTPLSPSPMKTPPAAAVSPMQRHSISGPISTSKPLTALSDKRPNYGEIPVQEHLLRTSSASRPASLPRVPAMESAKTLSVSRRSSEEMKRDISAQEGASPASLMAMGTTSPQLSLSSSPTASVTPTTRSRIREERKDPLSALAREYGGSKRNALLKWCQKKTEGYQNIDITNFSSSWNDGLAFCALLHTYLPAHIPYQELNSQDKRRNFMLAFQAAESVGIKSTLDINEMVRTERPDWQNVMLYVTAIYKYFET",binds
3,"Tropomodulin-3 (protein, UniProt Q9NYL9 1-352) MALPFRKDLEKYKDLDEDELLGNLSETELKQLETVLDDLDPENALLPAGFRQKNQTSKSTTGPFDREHLLSYLEKEALEHKDREDYVPYTGEKKGKIFIPKQKPVQTFTEEKVSLDPELEEALTSASDTELCDLAAILGMHNLITNTKFCNIMGSSNGVDQEHFSNVVKGEKILPVFDEPPNPTNVEESLKRTKENDAHLVEVNLNNIKNIPIPTLKDFAKALETNTHVKCFSLAATRSNDPVATAFAEMLKVNKTLKSLNVESNFITGVGILALIDALRDNETLAELKIDNQRQQLGTAVELEMAKMLEENTNILKFGYQFTQQGPRTRAANAITKNNDLVRKRRVEGDHQ",binds
4,"Junction plakoglobin, isoform CRA_a (protein, UniProt P14923 1-745) MEVMNLMEQPIKVTEWQQTYTYDSGIHSGANTCVPSVSSKGIMEEDEACGRQYTLKKTTTYTQGVPPSQGDLEYQMSTTARAKRVREAMCPGVSGEDSSLLLATQVEGQATNLQRLAEPSQLLKSAIVHLINYQDDAELATRALPELTKLLNDEDPVVVTKAAMIVNQLSKKEASRRALMGSPQLVAAVVRTMQNTSDLDTARCTTSILHNLSHHREGLLAIFKSGGIPALVRMLSSPVESVLFYAITTLHNLLLYQEGAKMAVRLADGLQKMVPLLNKNNPKFLAITTDCLQLLAYGNQESKLIILANGGPQALVQIMRNYSYEKLLWTTSRVLKVLSVCPSNKPAIVEAGGMQALGKHLTSNSPRLVQNCLWTLRNLSDVATKQEGLESVLKILVNQLSVDDVNVLTCATGTLSNLTCNNSKNKTLVTQNSGVEALIHAILRAGDKDDITEPAVCALRHLTSRHPEAEMAQNSVRLNYGIPAIVKLLNQPNQWPLVKATIGLIRNLALCPANHAPLQEAAVIPRLVQLLVKAHQDAQRHVAAGTQQPYTDGVRMEEIVEGCTGALHILARDPMNRMEIFRLNTIPLFVQLLYSSVENIQRVAAGVLCELAQDKEAADAIDAEGASAPLMELLHSRNEGTATYAAAVLFRISEDKNPDYRKRVSVELTNSLFKHDPAAWEAAQSMIPINEPYGDDMDATYRPMYSSDVPLDPLEMHMDMDGDYPIDTYSDGLRPPYPTADHMLA",binds
5,"Uveal autoantigen with coiled-coil domains and ankyrin repeats (protein, UniProt Q9BZF9 1-1416) MKSLKSRLRRQDVPGPASSGAAAASAHAADWNKYDDRLMKAAERGDVEKVTSILAKKGVNPGKLDVEGRSVFHVVTSKGNLECLNAILIHGVDITTSDTAGRNALHLAAKYGHALCLQKLLQYNCPTEHADLQGRTALHDAAMADCPSSIQLLCDHGASVNAKDVDGRTPLVLATQMSRPTICQLLIDRGADVNSRDKQNRTALMLGCEYGCRDAVEVLIKNGADISLLDALGHDSSYYARIGDNLDILTLLKTASENTNKGRELWKKGPSLQQRNLTHMQDEVNVKSHQREHQNIQDLEIENEDLKERLRKIQQEQRILLDKVNGLQLQLNEEVMVADDLESEREKLKSLLAAKEKQHEESLRTIEALKNRFKYFESDHLGSGSHFSNRKEDMLLKQGQMYMADSQCTSPGIPAHMQSRSMLRPLELSLPSQTSYSENEILKKELEAMRTFCESAKQDRLKLQNELAHKVAECKALALECERVKEDSDEQIKQLEDALKDVQKRMYESEGKVKQMQTHFLALKEHLTSEAASGNHRLTEELKDQLKDLKVKYEGASAEVGKLRNQIKQNEMIVEEFKRDEGKLIEENKRLQKELSMCEMEREKKGRKVTEMEGQAKELSAKLALSIPAEKFENMKSSLSNEVNEKAKKLVEMEREHEKSLSEIRQLKRELENVKAKLAQHVKPEEHEQVKSRLEQKSGELGKKITELTLKNQTLQKEIEKVYLDNKLLKEQAHNLTIEMKNHYVPLKVSEDMKKSHDAIIDDLNRKLLDVTQKYTEKKLEMEKLLLENDSLSKDVSRLETVFVPPEKHEKEIIALKSNIVELKKQLSELKKKCGEDQEKIHALTSENTNLKKMMSNQYVPVKTHEEVKMTLNDTLAKTNRELLDVKKKFEDINQEFVKIKDKNEILKRNLENTQNQIKAEYISLAEHEAKMSSLSQSMRKVQDSNAEILANYRKGQEEIVTLHAEIKAQKKELDTIQECIKVKYAPIVSFEECERKFKATEKELKDQLSEQTQKYSVSEEEVKKNKQENDKLKKEIFTLQKDLRDKTVLIEKSHEMERALSRKTDELNKQLKDLSQKYTEVKNVKEKLVEENAKQTSEILAVQNLLQKQHVPLEQVEALKKSLNGTIENLKEELKSMQRCYEKEQQTVTKLHQLLENQKNSSVPLAEHLQIKEAFEKEVGIIKASLREKEEESQNKMEEVSKLQSEVQNTKQALKKLETREVVDLSKYKATKSDLETQISSLNEKLANLNRKYEEVCEEVLHAKKKEISAKDEKELLHFSIEQEIKDQKERCDKSLTTITELQRRIQESAKQIEAKDNKITELLNDVERLKQALNGLSQLTYTSGNPTKRQSQLIDTLQHQVKSLEQQLADADRQHQEVIAIYRTHLLSAAQGHMDEDVQEALLQIIQMRQGLVC",binds
6,"Ankycorbin (protein, UniProt Q9P0K7 1-980) MKSLKAKFRKSDTNEWNKNDDRLLQAVENGDAEKVASLLGKKGASATKHDSEGKTAFHLAAAKGHVECLRVMITHGVDVTAQDTTGHSALHLAAKNSHHECIRKLLQSKCPAESVDSSGKTALHYAAAQGCLQAVQILCEHKSPINLKDLDGNIPLLLAVQNGHSEICHFLLDHGADVNSRNKSGRTALMLACEIGSSNAVEALIKKGADLNLVDSLGYNALHYSKLSENAGIQSLLLSKISQDADLKTPTKPKQHDQVSKISSERSGTPKKRKAPPPPISPTQLSDVSSPRSITSTPLSGKESVFFAEPPFKAEISSIRENKDRLSDSTTGADSLLDISSEADQQDLLSLLQAKVASLTLHNKELQDKLQAKSPKEAEADLSFDSYHSTQTDLGPSLGKPGETSPPDSKSSPSVLIHSLGKSTTDNDVRIQQLQEILQDLQKRLESSEAERKQLQVELQSRRAELVCLNNTEISENSSDLSQKLKETQSKYEEAMKEVLSVQKQMKLGLVSPESMDNYSHFHELRVTEEEINVLKQDLQNALEESERNKEKVRELEEKLVEREKGTVIKPPVEEYEEMKSSYCSVIENMNKEKAFLFEKYQEAQEEIMKLKDTLKSQMTQEASDEAEDMKEAMNRMIDELNKQVSELSQLYKEAQAELEDYRKRKSLEDVTAEYIHKAEHEKLMQLTNVSRAKAEDALSEMKSQYSKVLNELTQLKQLVDAQKENSVSITEHLQVITTLRTAAKEMEEKISNLKEHLASKEVEVAKLEKQLLEEKAAMTDAMVPRSSYEKLQSSLESEVSVLASKLKESVKEKEKVHSEVVQIRSEVSQVKREKENIQTLLKSKEQEVNELLQKFQQAQEELAEMKRYAESSSKLEEDKDKKINEMSKEVTKLKEALNSLSQLSYSTSSSKRQSQQLEALQQQVKQLQNQLAECKKQHQEVISVYRMHLLYAVQGQMDEDVQKVLKQILTMCKNQSQKK",binds
7,"Leucine-rich repeat flightless-interacting protein 2 (protein, UniProt Q9Y608 1-721) MGTPASGRKRTPVKDRFSAEDEALSNIAREAEARLAAKRAARAEARDIRMRELERQQKEYSLHSFDRKWGQIQKWLEDSERARYSHRSSHHRPYLGVEDALSIRSVGSHRYDMFKDRSSRLSSLNHSYSHSHGMKKRSSDSHKDLLSGLYFDQRNYSSLRHSKPTSAYYTRQSSSLYSDPLATYKSDRASPTANSGLLRSASLASLYNGGLYNPYGPRTPSECSYYSSRISSARSSPGFTNDDTASIVSSDRASRGRRESVVSAADYFSRSNRRGSVVSEVDDISIPDLSSLDEKSDKQYAENYTRPSSRNSASATTPLSGNSSRRGSGDTSSLIDPDTSLSELRDIYDLKDQIQDVEGRYMQGLKELKESLSEVEEKYKKAMVSNAQLDNEKNNLIYQVDTLKDVIEEQEEQMAEFYRENEEKSKELERQKHMCSVLQHKMEELKEGLRQRDELIEEKQRMQQKIDTMTKEVFDLQETLLWKDKKIGALEKQKEYIACLRNERDMLREELADLQETVKTGEKHGLVIIPDGTPNGDVSHEPVAGAITVVSQEAAQVLESAGEGPLDVRLRKLAGEKEELLSQIRKLKLQLEEERQKCSRNDGTVGDLAGLQNGSDLQFIEMQRDANRQISEYKFKLSKAEQDITTLEQSISRLEGQVLRYKTAAENAEKVEDELKAEKRKLQRELRTALDKIEEMEMTNSHLAKRLEKMKANRTALLAQQ",binds
8,"FLOT1 protein (protein, UniProt O75955 1-427) MFFTCGPNEAMVVSGFCRSPPVMVAGGRVFVLPCIQQIQRISLNTLTLNVKSEKVYTRHGVPISVTGIAQVKIQGQNKEMLAAACQMFLGKTEAEIAHIALETLEGHQRAIMAHMTVEEIYKDRQKFSEQVFKVASSDLVNMGISVVSYTLKDIHDDQDYLHSLGKARTAQVQKDARIGEAEAKRDAGIREAKAKQEKVSAQYLSEIEMAKAQRDYELKKAAYDIEVNTRRAQADLAYQLQVAKTKQQIEEQRVQVQVVERAQQVAVQEQEIARREKELEARVRKPAEAERYKLERLAEAEKSQLIMQAEAEAASVRMRGEAEAFAIGARARAEAEQMAKKAEAFQLYQEAAQLDMLLEKLPQVAEEISGPLTSANKITLVSSGSGTMGAAKVTGEVLDILTRLPESVERLTGVSISQVNHKPLRTA",binds
